This is one part of the list. Repeats are few or missing, and single values can be far off.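 Cells were imaged in 1,536-well plates, and nuclei stained with an antibody against cleaved PARP were counted against all DNA-stained nuclei to give the apoptosis fraction. Screening doses were chosen to leave most cells alive, and resting and induced cleaved-PARP levels differ strongly between cell lines.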
Legend:
Assay in all cases: cleaved PARP positive nuclei fraction relative to DMSO control; melanoma cells; higher = more apoptosis
Details in all cases: library dose: low library concentration; 72 h
MZ2-MEL = system: MZ2-MEL
MeWo = system: MeWo
RPMI7951 = system: RPMI7951
RVH-421 = system: RVH-421
SkMel28 = system: SkMel28
SkMel2 = system: SkMel2
SkMel30 = system: SkMel30
SkMel5 = system: SkMel5
UACC257 = system: UACC257
UACC62 = system: UACC62
WM115 = system: WM115
WM1716 = system: WM1716
WM1745 = system: WM1745
WM3526 = system: WM3526
WM3619 = system: WM3619
WM451Lu = system: WM451Lu

Compound | cleaved PARP positive nuclei fraction (MZ2-MEL) [%] | cleaved PARP positive nuclei fraction (MeWo) [%] | cleaved PARP positive nuclei fraction (RPMI7951) [%] | cleaved PARP positive nuclei fraction (RVH-421) [%] | cleaved PARP positive nuclei fraction (SkMel28) [%] | cleaved PARP positive nuclei fraction (SkMel2) [%] | cleaved PARP positive nuclei fraction (SkMel30) [%] | cleaved PARP positive nuclei fraction (SkMel5) [%] | cleaved PARP positive nuclei fraction (UACC257) [%] | cleaved PARP positive nuclei fraction (UACC62) [%] | cleaved PARP positive nuclei fraction (WM115) [%] | cleaved PARP positive nuclei fraction (WM1716) [%] | cleaved PARP positive nuclei fraction (WM1745) [%] | cleaved PARP positive nuclei fraction (WM3526) [%] | cleaved PARP positive nuclei fraction (WM3619) [%] | cleaved PARP positive nuclei fraction (WM451Lu) [%]
CC(C)C[C@H](NC(=O)[C@H](Cc1ccccc1)NC(=O)c1cnccn1)B(O)O [Bortezomib] + CN(C)S(=O)(=O)c1ccc2c(c1)/C(=C/c1cc3c([nH]1)CCCC3)C(=O)N2 [SU6656] (first compound 0.001 µM, partner dose 0.4 µM) | 111 | 71.3 | 114 | 97.7 | 132 | 41.6 | 159 | 154 | 84.7 | 161 | 148 | 514 | 189 | 85.4 | 503 | 70.7
C=C(c1ccc(C(=O)O)cc1)c1cc2c(cc1C)C(C)(C)CCC2(C)C [Bexarotene] + NC(=O)Nc1cc(-c2cccc(F)c2)sc1C(=O)N[C@H]1CCCNC1 [AZD7762] (first compound 2 µM, partner dose 0.02 µM) | 105 | 75.3 | 105 | 113 | 221 | 67.9 | 58.6 | 144 | 51.6 | 86.7 | 73.4 | 148 | 88.8 | 69.3 | 122 | 94.3
Cn1c(=O)n(-c2ccc(C(C)(C)C#N)cc2)c2c3cc(-c4cnc5ccccc5c4)ccc3ncc21 + CCN(CC)CCCCNc1ncc2cc(-c3cc(OC)cc(OC)c3)c(NC(=O)NC(C)(C)C)nc2n1 [PD173074] (first compound 0.004 µM, partner dose 0.1 µM) | 167 | 50.1 | 69.6 | 65.4 | 275 | 27.7 | 102 | 67.1 | 236 | 277 | 143 | 246 | 82.2 | 80.2 | 103 | 138
O=C(O)c1ccc2c(c1)nc(Nc1cccc(Cl)c1)c1ccncc12 + O=C(Nc1cccc(Cl)c1)Nc1ncc(CCNc2ncnc3ccsc23)s1 [SNS314] (first compound 0.4 µM, partner dose 0.0008 µM) | 94.4 | 39.5 | 39.1 | 205 | 27.4 | 124 | 125 | 171 | 93.8 | 143 | 482 | 192 | 91.2 | 136 | 190 | 33.5
C=C(c1ccc(C(=O)O)cc1)c1cc2c(cc1C)C(C)(C)CCC2(C)C [Bexarotene] + COc1cc2ncnc(Nc3ccc(Oc4ccccc4)cc3)c2cc1OC [SrcI1] (first compound 2 µM, partner dose 2 µM) | 206 | 93.5 | 133 | 80.4 | 202 | 91.8 | 145 | 87 | 184 | 186 | 96.6 | 239 | 114 | 76.3 | 106 | 141
Nc1ccn([C@@H]2O[C@H](CO)[C@@H](O)C2(F)F)c(=O)n1 [gemcitabine] + CC(C)(C)c1cnc(CSc2cnc(NC(=O)C3CCNCC3)s2)o1 [SNS-032] (first compound 0.0004 µM, partner dose 0.01 µM) | 92.8 | 90.4 | 127 | 47.8 | 93.5 | 98.8 | 30.4 | 36 | 119 | 79 | 58 | 61.4 | 125 | 53.8 | 109 | 58.5
CN1CCN(c2ccc3nc(-c4c(N)c5c(F)cccc5[nH]c4=O)[nH]c3c2)CC1 [Dovitinib] + CCN(CC)CCCCNc1ncc2cc(-c3cc(OC)cc(OC)c3)c(NC(=O)NC(C)(C)C)nc2n1 [PD173074] (first compound 0.1 µM, partner dose 0.1 µM) | 122 | 583 | 53.8 | 222 | 81.5 | 121 | 38.5 | 69.5 | 96.1 | 20.9 | 86.7 | 85 | 93.1 | 79.7 | 77.5 | 236
C[C@@H](Oc1cc(-c2cnn(C3CCNCC3)c2)cnc1N)c1c(Cl)ccc(F)c1Cl [Crizotinib] + COc1ccc(-c2ccc3c(N4CCOCC4)nc(N4C[C@@H](C)O[C@@H](C)C4)nc3n2)cc1CO [KU0063794] (first compound 0.2 µM, partner dose 0.02 µM) | 98.9 | 111 | 85.4 | 162 | 154 | 119 | 124 | 89.6 | 55.4 | 96.5 | 66.5 | 108 | 181 | 79 | 104 | 70.6
Nc1nc(F)nc2c1ncn2[C@@H]1O[C@H](CO)[C@@H](O)[C@@H]1O [fludarabine] + NCC(=O)Nc1ccc(-n2nc(C(F)(F)F)cc2-c2ccc3c(ccc4ccccc43)c2)cc1 [OSU03012] (first compound 0.2 µM, partner dose 1 µM) | 140 | 570 | 53.7 | 83.5 | 40.8 | 407 | 829 | 69.6 | 584 | 82.6 | 217 | 139 | 179 | 177 | 91.3 | 136
O=C(O)c1ccc2c(c1)nc(Nc1cccc(Cl)c1)c1ccncc12 + COc1cc(Nc2ncc(F)c(Nc3ccc4c(n3)NC(=O)C(C)(C)O4)n2)cc(OC)c1OC [Tamatinib] (first compound 0.4 µM, partner dose 0.4 µM) | 280 | 167 | 74.5 | 51.8 | 72.3 | 111 | 80.4 | 35.4 | 236 | 142 | 122 | 100 | 129 | 146 | 118 | 153
C[C@@H](Oc1cc(-c2cnn(C3CCNCC3)c2)cnc1N)c1c(Cl)ccc(F)c1Cl [Crizotinib] + COc1ccc2c(c1)CCC1C2CCC2(C)C(NCCCCCCN3C(=O)C=CC3=O)CCC12 [U73122] (first compound 0.2 µM, partner dose 0.4 µM) | 88.9 | 135 | 144 | 120 | 134 | 73.2 | 17 | 298 | 38.7 | 343 | 72.9 | 196 | 182 | 109 | 103 | 48.1
O=C(O)c1ccc2c(c1)nc(Nc1cccc(Cl)c1)c1ccncc12 + CO[C@@H]1[C@H](N(C)C(=O)c2ccccc2)C[C@H]2O[C@]1(C)n1c3ccccc3c3c4c(c5c6ccccc6n2c5c31)C(=O)NC4 [Midostaurin] (first compound 0.4 µM, partner dose 0.08 µM) | 199 | 586 | 34.6 | 84.1 | 102 | 84.7 | 425 | 129 | 77.1 | 185 | 276 | 144 | 110 | 90 | 117 | 55.1
Nc1ncn([C@H]2C[C@H](O)[C@@H](CO)O2)c(=O)n1 [decitabine] + O=C(Nc1cccc(Cl)c1)Nc1ncc(CCNc2ncnc3ccsc23)s1 [SNS314] (first compound 0.1 µM, partner dose 0.0008 µM) | 146 | 56 | 130 | 110 | 90 | 89.9 | 68.5 | 55.7 | 195 | 56.7 | 239 | 153 | 113 | 133 | 106 | 36.9
Nc1ncn([C@H]2C[C@H](O)[C@@H](CO)O2)c(=O)n1 [decitabine] + O=C(Nc1ccccc1)c1cc([N+](=O)[O-])ccc1Cl [GW9662] (first compound 0.1 µM, partner dose 2 µM) | 87.1 | 212 | 40.5 | 74.2 | 50.6 | 76.5 | 176 | 205 | 29.6 | 116 | 136 | 52.5 | 91.2 | 87.3 | 83.7 | 209
C=C(c1ccc(C(=O)O)cc1)c1cc2c(cc1C)C(C)(C)CCC2(C)C [Bexarotene] + CN(NC(=O)CC(=O)NN(C)C(=S)c1ccccc1)C(=S)c1ccccc1 [STA4783] (first compound 2 µM, partner dose 0.006 µM) | 105 | 255 | 172 | 107 | 140 | 42.7 | 128 | 190 | 162 | 146 | 101 | 194 | 303 | 275 | 471 | 843
CCCS(=O)(=O)Nc1ccc(F)c(C(=O)c2c[nH]c3ncc(Cl)cc23)c1F + c1cc(-c2cnn3cc(-c4ccc(OCCN5CCCCC5)cc4)cnc23)ccn1 [Dorsomorphin] (first compound 0.08 µM, partner dose 0.4 µM) | 52.7 | 78 | 27.9 | 135 | 281 | 18.7 | 329 | 69 | 107 | 155 | 54.3 | 91.6 | 82 | 233 | 121 | 34.8
CNC(=O)c1cc(Oc2ccc(NC(=O)Nc3ccc(Cl)c(C(F)(F)F)c3)cc2)ccn1 [sorafenib] + C=CCn1c(=O)c2cnc(Nc3ccc(N4CCN(C)CC4)cc3)nc2n1-c1cccc(C(C)(C)O)n1 [MK1775] (first compound 0.4 µM, partner dose 0.02 µM) | 61.3 | 97.7 | 108 | 76.3 | 92.7 | 110 | 62.7 | 125 | 223 | 60.9 | 79.4 | 164 | 96.5 | 29.1 | 133 | 27.2
Nc1nc(F)nc2c1ncn2[C@@H]1O[C@H](CO)[C@@H](O)[C@@H]1O [fludarabine] + COc1cc2c(Oc3ccc4[nH]c(C)cc4c3F)ncnc2cc1OCCCN1CCCC1 [cediranib] (first compound 0.2 µM, partner dose 0.4 µM) | 274 | 359 | 57 | 47.4 | 102 | 927 | 133 | 259 | 100 | 139 | 54.8 | 111 | 94.5 | 467 | 85.2 | 613
CCCS(=O)(=O)Nc1ccc(F)c(C(=O)c2c[nH]c3ncc(Cl)cc23)c1F + O=c1cc(-c2cccc3c2Sc2ccccc2S3)oc(N2CCOCC2)c1 [KU55933] (first compound 0.08 µM, partner dose 1 µM) | 69.3 | 59.8 | 57.6 | 93.9 | 105 | 101 | 203 | 67.1 | 114 | 170 | 150 | 31.3 | 90.5 | 115 | 129 | 143

Part of the list above, comma-delimited:
Compound,cleaved PARP positive nuclei fraction (MZ2-MEL) [%],cleaved PARP positive nuclei fraction (MeWo) [%],cleaved PARP positive nuclei fraction (RPMI7951) [%],cleaved PARP positive nuclei fraction (RVH-421) [%],cleaved PARP positive nuclei fraction (SkMel28) [%],cleaved PARP positive nuclei fraction (SkMel2) [%],cleaved PARP positive nuclei fraction (SkMel30) [%],cleaved PARP positive nuclei fraction (SkMel5) [%],cleaved PARP positive nuclei fraction (UACC257) [%],cleaved PARP positive nuclei fraction (UACC62) [%],cleaved PARP positive nuclei fraction (WM115) [%],cleaved PARP positive nuclei fraction (WM1716) [%],cleaved PARP positive nuclei fraction (WM1745) [%],cleaved PARP positive nuclei fraction (WM3526) [%],cleaved PARP positive nuclei fraction (WM3619) [%],cleaved PARP positive nuclei fraction (WM451Lu) [%]
"Nc1nc(F)nc2c1ncn2[C@@H]1O[C@H](CO)[C@@H](O)[C@@H]1O [fludarabine] + NCC(=O)Nc1ccc(-n2nc(C(F)(F)F)cc2-c2ccc3c(ccc4ccccc43)c2)cc1 [OSU03012] (first compound 0.2 µM, partner dose 1 µM)",140,570,53.7,83.5,40.8,407,829,69.6,584,82.6,217,139,179,177,91.3,136
"O=C(O)c1ccc2c(c1)nc(Nc1cccc(Cl)c1)c1ccncc12 + COc1cc(Nc2ncc(F)c(Nc3ccc4c(n3)NC(=O)C(C)(C)O4)n2)cc(OC)c1OC [Tamatinib] (first compound 0.4 µM, partner dose 0.4 µM)",280,167,74.5,51.8,72.3,111,80.4,35.4,236,142,122,100,129,146,118,153

— the supplement of paper PMC4604168 (melanoma cell lines)
